Test results from paper PMC12165043, “Neophytadiene, a Plant Specialized Metabolite, Mediates the Virus‐Vector‐Plant Tripartite Interactions” (Advanced Science, 2025).

System: BtOBP1-8 genes
Test: Transcriptional response of BtOBP1-8 to neophytadiene (qRT-PCR)
Conditions: Fig 7A
Procedure: RNA was extracted using trizol reagent (Invitrogen, Waltham USA) and dissolved in double‐deionized water; cDNA was synthesized from total RNA (1 µg) using HiScript 1st Strand cDNA Synthesis kit (Vazyme, Nanjing China). Real‐time qPCR was conducted using the MonAmp SYBR Green qPCR Mix (Thermofisher, Waltham USA). Actin and UBI were selected as the housekeeping genes (Table S1, Supporting Information). Each experiment was repeated at least three times and relative gene expression levels calculated for analysis using the 2^−∆∆Ct method.
To investigate the expression profiles of BtOBP1‐8 genes in B. tabaci under neophytadiene treatment, the following experiment was performed. Tomato plants with an identical growth cycle were selected as the treatment group (sprayed with 3 µg g^−1 neophytadiene) and the control group (treated with water only). The treated plants were then placed in a 10 L hermetic container. Once the volatilization reached equilibrium, 500 pairs of adults were introduced into the closed container and fumigated under airtight conditions. Subsequently, the whiteflies were sampled at distinct time points (0, 24, 48, 72, 96 h) respectively for the determination of expression levels.

Question: `C=CC(=C)CCCC(C)CCCC(C)CCCC(C)C` (centres unmarked) [Neophytadiene] was tested. Which OBP6 relative expression (24h) did it give?
Answer: 0.3158, 0.7629, 0.6354

Question: What about the OBP8 relative expression (24h) of the same molecule?
Answer: 0.804, 0.4233, 0.117

Question: What about the OBP5 relative expression (48h) of the same molecule?
Answer: 1.717 and 0.72

Question: And the OBP6 relative expression (48h)?
Answer: 0.1156, 0.2913, 0.2172

Question: What about the OBP8 relative expression (48h) of the same molecule?
Answer: 0.08092, 0.185, 0.2953

Question: And the OBP1 relative expression (72h)?
Answer: 0.3631, 0.3821, 0.8787

Question: What about the OBP2 relative expression (72h) of the same molecule?
Answer: 6.04, 4.95, 2.53

Question: And the OBP3 relative expression (72h)?
Answer: 1.49, 3.64, 2.29

Question: And the OBP5 relative expression (72h)?
Answer: 1.327, 0.964, 0.5766

Question: And the OBP7 relative expression (72h)?
Answer: 0.02778, 0.1077, 0.03582

Question: And the OBP8 relative expression (72h)?
Answer: 0.9037, 0.2535, 0.7951

Question: And the OBP1 relative expression (96h)?
Answer: 1.472, 0.5918, 0.9874

Question: What about the OBP2 relative expression (96h) of the same molecule?
Answer: 5.89, 6.05, 2.96

Question: What about the OBP5 relative expression (96h) of the same molecule?
Answer: 1.738, 1.309, 0.7564

The source holds more than one record for some entries. This is not the full list of results. There may be further records. The records of an entry differ, and nothing given here explains why; they may come from other doses, times, organisms or constructs than stated.
